# Laboratory results from patent US5948793A, “3-pyridyloxymethyl heterocyclic ether compounds useful in controlling neurotransmitter release” (Abbott Laboratories, priority 1995, dated 1999).
# Counter-ions that a name gives are not always drawn. At least one structure is not confirmed: it was looked up by name or label, or the drawing left a doubt.
# Target: neuronal nicotinic cholinergic channel receptors
# Assay: [3H]-cytisine displacement binding to neuronal nicotinic cholinergic channel receptors
# Type: rat (crude synaptic membranes from whole rat brain)
# Conditions: Table 2; [3H]-cytisine 1.25 nM, 60 min at 4° C.; read-out: Receptor Binding Ki
# Protocol: B. Protocol For Determination of Nicotinic Cholinergic Channel Receptor Binding Potencies of Ligands
# Binding of [^3 H]-cytisine ([^3 H]-CYT) to nicotinic receptors was accomplished using crude synaptic membrane preparations from whole rat brain (Pabreza et al., Molecular Pharmaol., 1990, 39:9). Washed membranes were stored at -80° C. prior to use. Frozen aliquots were slowly thawed and resuspended in 20 volumes of buffer (containing: 120 mM NaCl, 5 mM KCl, 2 mM MgCl2, 2 mM CaCl2 and 50 mM Tris-Cl, pH 7.4 @4° C.). After centrifuging at 20,000×g for 15 minutes, the pellets were resuspended in 30 volumes of buffer. Homogenate (containing […]) was added to triplicate tubes containing concentrations of test compound and [^3 H]-CYT (1.25 nM) in a final volume of 500 μL. Samples were incubated for 60 minutes at 4° C., then rapidly filtered through Whatman GF/B filters presoaked in 0.5% polyethylimine using 3×4 mL of ice-cold buffer. The filters are counted in 4 mL of Ecolume® (ICN). […] Alternately, data were expressed as a percentage of the total specific binding.
compound,measurement,value
"CCCC[C@H]1CC[C@@H](COc2cccnc2)N1C [Example 91, 3-((cis-5-n-butyl-1-methyl-2-(S)-pyrrolidinyl)methoxy)pyridine dihydrochloride]",Ki,1.47 nM
